From PMC7047201
Results are given in words; binding and its absence hold for the method and conditions named. In cells and extracts the contact can be indirect. Some entries that bind do so weakly or less than the wild type.

Amino acid sequences for entries named in this document (tags omitted).
UniProt P25098: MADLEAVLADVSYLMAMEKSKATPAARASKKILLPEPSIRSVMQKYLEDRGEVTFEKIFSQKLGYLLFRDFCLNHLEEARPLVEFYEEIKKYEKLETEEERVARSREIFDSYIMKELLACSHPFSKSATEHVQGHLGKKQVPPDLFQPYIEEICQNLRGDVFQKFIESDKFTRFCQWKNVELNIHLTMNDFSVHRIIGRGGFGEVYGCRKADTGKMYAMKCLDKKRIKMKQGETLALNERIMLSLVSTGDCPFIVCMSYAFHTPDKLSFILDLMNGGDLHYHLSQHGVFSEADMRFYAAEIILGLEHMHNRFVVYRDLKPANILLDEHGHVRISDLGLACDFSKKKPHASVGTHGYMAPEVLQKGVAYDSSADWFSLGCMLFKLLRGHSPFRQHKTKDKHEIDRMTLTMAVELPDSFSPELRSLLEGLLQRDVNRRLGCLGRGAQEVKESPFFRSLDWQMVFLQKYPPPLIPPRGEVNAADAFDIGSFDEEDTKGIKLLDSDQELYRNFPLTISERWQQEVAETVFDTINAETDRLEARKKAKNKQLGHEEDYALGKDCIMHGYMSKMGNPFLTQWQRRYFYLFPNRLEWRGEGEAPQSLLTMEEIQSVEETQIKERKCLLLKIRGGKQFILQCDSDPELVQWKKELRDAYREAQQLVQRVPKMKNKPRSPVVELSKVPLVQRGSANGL
UniProt P63092: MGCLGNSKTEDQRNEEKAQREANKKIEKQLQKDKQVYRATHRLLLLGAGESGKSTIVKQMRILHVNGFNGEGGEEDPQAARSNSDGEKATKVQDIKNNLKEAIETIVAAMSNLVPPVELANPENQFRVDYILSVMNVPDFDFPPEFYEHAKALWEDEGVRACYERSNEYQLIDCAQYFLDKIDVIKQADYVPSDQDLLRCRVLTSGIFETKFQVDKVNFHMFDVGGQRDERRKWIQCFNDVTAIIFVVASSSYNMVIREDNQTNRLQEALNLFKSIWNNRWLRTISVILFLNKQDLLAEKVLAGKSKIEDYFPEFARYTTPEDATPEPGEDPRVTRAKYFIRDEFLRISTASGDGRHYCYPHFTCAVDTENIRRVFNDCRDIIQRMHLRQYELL

Molecular target: G protein-coupled receptor kinase 2 (GRK2), wild type (UniProt P25098)
Test: co-IP; HEK293T cells co-transfected with β3AR, HA-Gαs and wild type GRK2, stimulated with 10 µM BRL37344; cross-linking in intact cells with 2.5 mM DSP (30 min, 25°C); lysis in RIPA buffer at 4°C; GRK2 immunoprecipitated with anti-GRK2 antibody and Protein A/G Plus-Agarose; cross-linker cleaved; co-precipitated HA-Gαs detected by anti-HA western blot

- binding: binds
Substance: HA-tagged Gαs subunit (from UniProt P63092 1-394)
